Measurements taken from PubChem BioAssay AID662 (National Center for Advancing Translational Sciences (NCATS), 2007).
“And” between values parts separate entries of the source, which are not always exact repeats. Identical values can stand only once. This is one part of the list. Shown are side measurements of this screen, not its main read-out; they come without a call. Most of these compounds were active or inconclusive in the main read-out, so they are no random draw. Potencies come from curve fits of mixed quality, noted in brackets.

Test: Cell signaling CRE-BLA (Fsk stim)
Details: CHO CRE-bla reporter (cAMP response element driving beta-lactamase), forskolin EC10, beta-lactamase ratio; measured here: 460 nm blue channel
Method in brief: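 CHO CRE-bla cells, overnight plating in Opti-MEM with 0.5% dialyzed FBS; cpd titration + EC10 NKH 477, 3 h 37 °C; CCF4 2 h RT; ex 405/em 460 vs 530 ratio → %Activity, AC50.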
In the case of `Cc1nnc2n(C3CCCCC3)c(=O)c3c4c(sc3n12)CCC4`, the AC50 is reported as 1.58 µM [rising, partial curve]. With `Cc1ccccc1CSc1ncc(C#N)c(N)n1` the AC50 was 20 µM [rising, single point]. In the case of `COc1ccc(CNc2nc3nc(C)cc(C)n3n2)cc1OC`, the AC50 is reported as 12.6 µM [rising, single point]. For `O=Nc1c(-c2c(O)[nH]c3ccccc23)[nH]c2ccccc12`, the AC50 was 12.6 µM [falling, partial curve] and 15.8 µM [falling, partial curve]. For `c1ccc(C2=Nn3c(nnc3-c3cccnc3)SC2)cc1`, the AC50 was 20 µM [rising, single point]. In the case of `COc1ccc(Cl)cc1C(=O)Nc1ccccc1N1CCN(C(=O)C(C)C)CC1`, the AC50 is reported as 10 µM [rising, partial curve]. For `Cc1cc(Nc2cccc(C)c2C)n2nc(C)nc2n1`, the AC50 was 10 µM [rising, partial curve]. With `CN1Cc2cc(C(=O)c3cc(Cl)cc(CSc4ncccn4)c3O)cnc2NC1=O` the AC50 was 3.16 µM [rising, full curve]. With `O=C(CSc1ncn(-c2ccccc2)n1)Nc1ccc(Br)cn1` the AC50 was 25.1 µM [rising, single point]. In the case of `CC[C@@]1(O)C(=O)COc2c1cc1n(c2=O)Cc2c-1nc1cccc(C(C)C)c1c2[Si](C)(C)C`, the AC50 is reported as 12.6 µM [rising, partial curve]. In the case of `COc1cccc(NC(=O)Cn2c(=O)n(CCCC(=O)NCc3ccco3)c(=O)c3ccccc32)c1`, the AC50 is reported as 0.398 µM [falling, partial curve]. With `[O-][n+]1onc2c1CCC1N(O)C(c3ccccc3)CC21O` (stereo unspecified) the AC50 was 3.98 µM [rising, partial curve]. For `O=C(Nc1ccc(F)cc1)N(CCCN1CCOCC1)Cc1cc2cc3c(cc2[nH]c1=O)OCCO3`, the AC50 was 10 µM [rising, partial curve]. In the case of `Cc1cc(C)c2c(n1)nn1c(NCCN3CCOCC3)cc(C)nc21`, the AC50 is reported as 0.251 µM [rising, full curve]. For `O=C(Nc1ccc(N2CCOCC2)c(Cl)c1)C1CCCCC1`, the AC50 was 20 µM [rising, single point]. For `COc1ccc(C)cc1NC(=O)CCC(=O)Nc1ccc2nc(N3CCN(C)CC3)cc(C)c2c1`, the AC50 was 7.94 µM [rising, partial curve]. In the case of `CSCCC(NC(=O)c1cc(CC(C)C)oc1C)C(=O)O` (stereo unspecified), the AC50 is reported as 0.02 µM [falling, full curve, poor fit]. With `COC(=O)c1sccc1NC(=O)c1ccc(Br)o1` the AC50 was 1 µM [rising, partial curve]. With `O=C(NCc1ccccn1)C1COc2ccccc2O1` (stereo unspecified) the AC50 was 10 µM [rising, single point]. For `COc1ccc(NC(=O)c2cc3c(=O)n(C)c4ccccc4c3n2C)cc1OC`, the AC50 was 2.51 µM [rising, full curve]. For `CCCCN1CC(O)=C(c2nc3ccccc3[nH]2)C1=N`, the AC50 was 7.94 µM [falling, partial curve]. In the case of `CSCC[C@H](NC(=O)OC(C)(C)C)c1nnc(SCc2ccc(F)cc2)o1`, the AC50 is reported as 12.6 µM [rising, partial curve]. For `CC(=O)C1=C(O)C(=O)N(CCc2c[nH]c3ccccc23)C1c1ccc(O)cc1` (stereo unspecified), the AC50 was 20 µM [falling, partial curve, poor fit]. In the case of `Cc1oc(-c2cccc(Cl)c2)nc1CN1CCCC(C(=O)NC(C)c2ccc3c(c2)OCCO3)C1` (stereo unspecified), the AC50 is reported as 20 µM [falling, single point]. For `C=CCNc1nc2c(c(=O)[nH]c(=O)n2C)n1Cc1cccc(C)c1`, the AC50 was 10 µM [rising, partial curve]. In the case of `O=C(c1ccccn1)N(Cc1cc2ccccc2[nH]c1=O)C1CCCCC1`, the AC50 is reported as 3.98 µM [rising, partial curve]. In the case of `O=S(=O)(Nc1cccc(C(F)(F)F)c1)c1cccnc1`, the AC50 is reported as 0.316 µM [falling, single point]. For `CC(C)CCNc1nc2c(c(=O)n(Cc3cccc(F)c3)c(=O)n2C)n1C`, the AC50 was 3.16 µM [rising, single point]. With `Cc1csc(NC(=O)NC2(C(F)(F)F)Oc3ccccc3O2)n1` the AC50 was 0.398 µM [falling, full curve]. With `CN(C)c1ncnc2ccc(-c3cccc(C#N)c3)cc12` the AC50 was 7.94 µM [rising, partial curve]. In the case of `CCOC(=O)[C@H](N)/C=C(\C)CP(=O)(O)O`, the AC50 is reported as 31.6 µM [rising, single point]. In the case of `Cc1coc(C)c1C(=O)CC1(O)C(=O)N(Cc2ccccc2)c2ccccc21` (stereo unspecified), the AC50 is reported as 3.98 µM [rising, single point]. With `CC(C)(C)c1nnc(NC(=O)C2CCN(c3ncccn3)CC2)s1` the AC50 was 1 µM [rising, full curve]. With `O=C(c1nn(Cc2ccccc2)c(=O)c2ccccc12)N1CCN(c2ccccn2)CC1` the AC50 was 25.1 µM [rising, single point]. For `COc1ccccc1-c1nc(NCCNC(C)=O)c2ccccc2n1`, the AC50 was 10 µM [rising, partial curve]. With `COc1cc(OC)cc(-c2cc3nc4c(c(N5CCN(c6cnccn6)CC5)n3n2)CCCC4)c1` the AC50 was 3.16 µM [rising, partial curve]. In the case of `O=C1/C(=C/c2ccccc2)[C@@H](NC2CCCCC2)c2ccccc21`, the AC50 is reported as 1.58 µM [falling, partial curve]. With `Cc1cc(C(=O)NCc2cccs2)c(C)o1` the AC50 was 10 µM [falling, partial curve]. With `O=C(COc1ccc2c(c1)OCO2)NC12CC3CC(CC(C3)C1)C2` the AC50 was 1.26 µM [falling, full curve, poor fit]. With `CCOc1ccc(Cn2c(SCCCCC#N)nc3c2c(=O)n(C)c(=O)n3C)cc1OCC` the AC50 was 10 µM [rising, partial curve]. For `Cc1ccc(CS(=O)(=O)CCC(=O)NCc2ccccn2)cc1`, the AC50 was 0.501 µM [falling, partial curve]. With `CC1(C)CC(=O)C2=C(C1)NC(=O)CC2c1ccc(F)cc1` (stereo unspecified) the AC50 was 1 µM [falling, partial curve, poor fit]. With `CCN(CC)S(=O)(=O)c1ccc(Cl)c(C(=O)Nc2nncs2)c1` the AC50 was 1 µM [falling, partial curve, poor fit]. For `COC(=O)CC[C@@H](C)[C@@H]1CC[C@@H]2[C@@H]3CC[C@H]4C[C@@H](O)CC[C@@]4(C)[C@@H]3CC[C@]21C`, the AC50 was 5.01 µM [rising, single point]. In the case of `COC(=O)c1sc2nc3c(cc2c1N)COC(C)(C)C3`, the AC50 is reported as 10 µM [rising, partial curve]. For `Cc1cccc(N(CC(=O)N2CCCC2)S(=O)(=O)c2ccccc2)c1C`, the AC50 was 5.01 µM [rising, single point]. For `N#Cc1ccc(NC(=O)Nc2ccc(Cl)cc2)cc1`, the AC50 was 25.1 µM [falling, single point]. In the case of `COc1ccc(N=c2oc3cc(O)ccc3cc2C(=O)NCC2CCCO2)cc1` (stereo unspecified), the AC50 is reported as 12.6 µM [rising, partial curve]. For `CN1CCN(c2ccc3nc(-c4ccc5nc(-c6ccc(O)cc6)[nH]c5c4)[nH]c3c2)CC1`, the AC50 was 0.794 µM [rising, full curve, poor fit]. With `Cc1nc(SCc2nc3ccccc3[nH]2)c2oc3ccccc3c2n1` the AC50 was 0.0126 µM [rising, full curve]. With `CC(C)Oc1ccccc1C1CC(=O)Nc2cc3c(cc21)OCCO3` (stereo unspecified) the AC50 was 6.31 µM [rising, partial curve]. With `Cc1cc(C)c(C#N)c(SCC(=O)Nc2ccccc2C(N)=O)n1` the AC50 was 10 µM [rising, single point]. For `CC(Nc1cc(=O)n(C)c(=O)[nH]1)c1ccccc1` (stereo unspecified), the AC50 was 1 µM [falling, full curve, poor fit]. With `CC[C@]1(O)C[C@@H]2CN(CCc3c([nH]c4ccccc34)[C@](C(=O)OC)(c3cc4c(cc3OC)N(C)[C@H]3[C@](O)(C(=O)OC)[C@@H](C(=O)OC)[C@@]5(CC)C=CCN6CC[C@@]43[C@@H]65)C2)C1` the AC50 was 0.2 µM [rising, full curve]. In the case of `O=C1C(Cl)=C(NC2CCc3ccccc32)C(=O)c2ncccc21` (stereo unspecified), the AC50 is reported as 5.01 µM [falling, partial curve]. In the case of `CN=C(Nc1cc(C)nn1-c1ccccc1)c1ccccc1`, the AC50 is reported as 2 µM [falling, partial curve]. In the case of `CCCC(=O)Nc1ccc(C(=O)O)cc1NC(=O)CCC`, the AC50 is reported as 0.631 µM [rising, full curve, poor fit]. With `Cc1cc(C)c2c(CC(=O)Nc3nccs3)coc2c1` the AC50 was 5.01 µM [rising, single point]. In the case of `COc1cccc2[nH]c3c(N4CCC(C(N)=O)CC4)ncnc3c12`, the AC50 is reported as 0.1 µM [falling, partial curve, poor fit]. For `Cc1cccn2c(=O)c3cc(C(=O)N4CCCc5ccccc54)n(C)c3nc12`, the AC50 was 0.316 µM [rising, full curve]. With `Cc1cc(C)c2c(n1)nn1c(N3CCN(c4ccccn4)CC3)cc(C)nc21` the AC50 was 0.794 µM [rising, full curve, poor fit]. With `Cc1sc2nc(CSc3nc4ccccc4c(=O)n3CCCN3CCOCC3)[nH]c(=O)c2c1C` the AC50 was 5.01 µM [rising, partial curve]. With `COc1ccc(CCNS(=O)(=O)c2ccc3c(c2)OCCO3)cc1OC` the AC50 was 6.31 µM [rising, partial curve]. With `Cc1cc(Nc2cc(F)ccc2C)n2nc(C)nc2n1` the AC50 was 20 µM [rising, single point]. In the case of `CCOc1ccc(N(C)S(=O)(=O)c2ccc3[nH]cc(C(=O)NCC4CCCO4)c(=O)c3c2)cc1` (stereo unspecified), the AC50 is reported as 2.51 µM [falling, partial curve]. With `Cc1cc(C(=O)OCC(=O)NC2CCS(=O)(=O)C2)c(C)n1-c1ccccc1` (stereo unspecified) the AC50 was 5.01 µM [rising, single point].
